Data reported in the supplement of paper PMC10849652.
Some of the results follow.

Protein sequences, listed by entry. Tags and fused reporters are not part of them. Lines headed by an entry give the natural chain unless they say otherwise; changes in a name come on top.
UniProt Q96HS1, whole entry, looked up: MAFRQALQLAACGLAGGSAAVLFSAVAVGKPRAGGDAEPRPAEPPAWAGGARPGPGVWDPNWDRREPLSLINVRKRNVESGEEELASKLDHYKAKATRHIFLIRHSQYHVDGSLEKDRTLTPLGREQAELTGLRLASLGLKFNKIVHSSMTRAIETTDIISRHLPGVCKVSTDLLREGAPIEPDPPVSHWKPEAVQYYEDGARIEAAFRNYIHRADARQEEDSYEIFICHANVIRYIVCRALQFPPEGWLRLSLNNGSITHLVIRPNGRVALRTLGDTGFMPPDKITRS
UniProt P00558: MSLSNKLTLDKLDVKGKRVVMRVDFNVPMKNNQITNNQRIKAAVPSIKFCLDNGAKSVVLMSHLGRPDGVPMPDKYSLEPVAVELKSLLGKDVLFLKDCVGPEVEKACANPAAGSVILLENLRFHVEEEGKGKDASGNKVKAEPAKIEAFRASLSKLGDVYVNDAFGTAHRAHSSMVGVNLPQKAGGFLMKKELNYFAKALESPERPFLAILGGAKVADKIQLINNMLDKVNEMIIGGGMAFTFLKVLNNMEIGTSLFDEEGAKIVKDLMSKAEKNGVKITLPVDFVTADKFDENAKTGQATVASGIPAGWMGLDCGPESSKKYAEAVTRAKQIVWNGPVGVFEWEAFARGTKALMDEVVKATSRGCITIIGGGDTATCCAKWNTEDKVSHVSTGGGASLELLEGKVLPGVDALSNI
UniProt P12273: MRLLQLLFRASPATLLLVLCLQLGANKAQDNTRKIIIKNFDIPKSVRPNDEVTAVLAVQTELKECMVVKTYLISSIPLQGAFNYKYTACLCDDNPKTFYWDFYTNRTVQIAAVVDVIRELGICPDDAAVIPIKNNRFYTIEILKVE
UniProt Q13526, whole entry, looked up: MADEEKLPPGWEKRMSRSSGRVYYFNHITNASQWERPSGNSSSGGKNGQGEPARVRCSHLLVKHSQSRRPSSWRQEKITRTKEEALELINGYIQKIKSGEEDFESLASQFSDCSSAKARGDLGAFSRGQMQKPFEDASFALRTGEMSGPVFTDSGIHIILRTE
UniProt Q8NEB9, whole entry, looked up: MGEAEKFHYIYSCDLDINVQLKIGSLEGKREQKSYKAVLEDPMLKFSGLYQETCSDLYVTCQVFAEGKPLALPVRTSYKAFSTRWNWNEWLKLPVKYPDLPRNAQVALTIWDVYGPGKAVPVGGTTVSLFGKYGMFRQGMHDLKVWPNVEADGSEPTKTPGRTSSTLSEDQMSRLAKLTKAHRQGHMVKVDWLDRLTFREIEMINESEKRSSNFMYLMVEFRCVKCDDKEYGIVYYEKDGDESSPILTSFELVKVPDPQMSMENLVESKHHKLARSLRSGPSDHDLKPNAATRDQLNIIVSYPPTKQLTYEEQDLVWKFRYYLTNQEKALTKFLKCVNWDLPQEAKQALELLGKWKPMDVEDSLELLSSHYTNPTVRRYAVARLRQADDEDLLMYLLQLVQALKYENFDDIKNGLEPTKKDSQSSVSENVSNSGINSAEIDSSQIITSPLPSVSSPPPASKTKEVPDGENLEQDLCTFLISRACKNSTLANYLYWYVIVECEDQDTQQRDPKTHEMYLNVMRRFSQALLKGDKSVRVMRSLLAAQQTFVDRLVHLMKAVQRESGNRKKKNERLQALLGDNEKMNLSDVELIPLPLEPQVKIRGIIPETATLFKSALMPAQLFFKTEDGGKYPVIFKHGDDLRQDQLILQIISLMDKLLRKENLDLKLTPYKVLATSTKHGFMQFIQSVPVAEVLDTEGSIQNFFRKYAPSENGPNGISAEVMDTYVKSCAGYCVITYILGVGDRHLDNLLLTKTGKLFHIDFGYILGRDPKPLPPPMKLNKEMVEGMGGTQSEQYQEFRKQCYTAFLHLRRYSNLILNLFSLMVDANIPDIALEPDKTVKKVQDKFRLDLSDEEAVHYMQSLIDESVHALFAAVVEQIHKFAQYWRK
UniProt Q8TCD6: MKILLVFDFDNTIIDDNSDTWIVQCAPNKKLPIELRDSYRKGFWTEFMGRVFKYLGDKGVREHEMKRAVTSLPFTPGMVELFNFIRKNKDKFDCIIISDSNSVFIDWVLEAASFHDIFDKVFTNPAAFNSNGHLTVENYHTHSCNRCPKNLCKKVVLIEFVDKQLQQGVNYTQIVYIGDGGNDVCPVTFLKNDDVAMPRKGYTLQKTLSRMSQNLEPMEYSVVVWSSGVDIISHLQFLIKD
UniProt Q8TEQ8: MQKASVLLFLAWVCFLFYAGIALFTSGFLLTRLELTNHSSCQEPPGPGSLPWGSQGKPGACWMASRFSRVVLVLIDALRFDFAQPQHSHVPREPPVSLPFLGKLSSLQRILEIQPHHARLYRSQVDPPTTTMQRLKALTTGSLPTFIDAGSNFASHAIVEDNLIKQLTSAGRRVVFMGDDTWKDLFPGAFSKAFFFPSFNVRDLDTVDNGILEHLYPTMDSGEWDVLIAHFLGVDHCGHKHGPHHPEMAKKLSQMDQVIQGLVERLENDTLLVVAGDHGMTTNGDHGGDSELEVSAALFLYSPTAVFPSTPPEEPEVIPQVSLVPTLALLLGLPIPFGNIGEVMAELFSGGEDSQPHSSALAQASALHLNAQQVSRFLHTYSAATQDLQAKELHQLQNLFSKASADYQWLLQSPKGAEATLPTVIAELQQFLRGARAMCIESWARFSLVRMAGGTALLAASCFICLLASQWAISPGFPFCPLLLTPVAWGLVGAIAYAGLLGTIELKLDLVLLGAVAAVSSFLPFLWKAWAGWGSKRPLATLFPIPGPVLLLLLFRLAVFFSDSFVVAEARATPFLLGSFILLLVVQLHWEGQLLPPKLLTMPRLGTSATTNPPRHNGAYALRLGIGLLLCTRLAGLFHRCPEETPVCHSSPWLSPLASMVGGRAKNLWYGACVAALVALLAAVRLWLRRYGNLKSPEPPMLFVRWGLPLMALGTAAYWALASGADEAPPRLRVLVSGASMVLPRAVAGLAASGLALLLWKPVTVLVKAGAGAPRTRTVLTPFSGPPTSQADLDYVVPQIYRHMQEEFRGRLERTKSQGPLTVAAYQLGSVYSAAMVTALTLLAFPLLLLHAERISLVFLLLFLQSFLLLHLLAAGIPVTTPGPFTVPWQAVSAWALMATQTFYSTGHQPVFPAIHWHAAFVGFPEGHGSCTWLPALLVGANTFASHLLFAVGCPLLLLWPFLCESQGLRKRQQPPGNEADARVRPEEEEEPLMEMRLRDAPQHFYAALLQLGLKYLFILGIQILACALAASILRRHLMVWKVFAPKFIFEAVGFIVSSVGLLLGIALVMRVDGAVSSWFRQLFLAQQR
UniProt P42338: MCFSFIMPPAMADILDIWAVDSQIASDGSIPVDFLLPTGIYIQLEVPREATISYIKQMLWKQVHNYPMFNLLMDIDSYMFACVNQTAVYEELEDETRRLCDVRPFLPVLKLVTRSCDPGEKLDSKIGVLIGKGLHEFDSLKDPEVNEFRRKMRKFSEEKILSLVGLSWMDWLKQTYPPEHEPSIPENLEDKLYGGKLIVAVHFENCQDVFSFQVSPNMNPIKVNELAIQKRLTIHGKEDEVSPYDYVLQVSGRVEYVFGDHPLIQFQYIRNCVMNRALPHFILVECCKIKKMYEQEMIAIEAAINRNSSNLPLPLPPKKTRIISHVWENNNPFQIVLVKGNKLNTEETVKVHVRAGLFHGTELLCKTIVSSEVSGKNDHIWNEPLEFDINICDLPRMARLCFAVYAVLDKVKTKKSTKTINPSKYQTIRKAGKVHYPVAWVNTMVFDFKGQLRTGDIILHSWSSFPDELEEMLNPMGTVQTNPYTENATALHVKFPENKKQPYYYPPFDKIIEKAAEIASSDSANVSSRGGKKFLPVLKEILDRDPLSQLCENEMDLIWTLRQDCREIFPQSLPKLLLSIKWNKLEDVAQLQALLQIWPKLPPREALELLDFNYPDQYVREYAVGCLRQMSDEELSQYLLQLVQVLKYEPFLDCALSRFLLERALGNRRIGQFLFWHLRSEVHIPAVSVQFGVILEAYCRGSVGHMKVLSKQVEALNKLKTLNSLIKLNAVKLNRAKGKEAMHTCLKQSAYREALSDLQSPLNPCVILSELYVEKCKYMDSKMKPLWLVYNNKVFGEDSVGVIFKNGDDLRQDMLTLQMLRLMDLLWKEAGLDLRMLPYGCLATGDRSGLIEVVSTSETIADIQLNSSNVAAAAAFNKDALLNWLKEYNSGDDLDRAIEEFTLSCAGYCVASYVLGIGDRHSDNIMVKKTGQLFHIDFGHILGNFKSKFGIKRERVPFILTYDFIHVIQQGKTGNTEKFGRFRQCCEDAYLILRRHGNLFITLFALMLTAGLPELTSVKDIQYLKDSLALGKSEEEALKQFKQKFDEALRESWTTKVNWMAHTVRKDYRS
UniProt Q8N4L2: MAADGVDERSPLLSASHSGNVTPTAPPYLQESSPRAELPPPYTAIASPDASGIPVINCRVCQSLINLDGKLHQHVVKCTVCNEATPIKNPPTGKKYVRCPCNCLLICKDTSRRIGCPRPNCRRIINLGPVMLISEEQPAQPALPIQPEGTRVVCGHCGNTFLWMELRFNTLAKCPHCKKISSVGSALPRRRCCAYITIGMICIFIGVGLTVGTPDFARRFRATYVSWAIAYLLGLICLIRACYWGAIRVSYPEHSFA
UniProt Q4KWH8: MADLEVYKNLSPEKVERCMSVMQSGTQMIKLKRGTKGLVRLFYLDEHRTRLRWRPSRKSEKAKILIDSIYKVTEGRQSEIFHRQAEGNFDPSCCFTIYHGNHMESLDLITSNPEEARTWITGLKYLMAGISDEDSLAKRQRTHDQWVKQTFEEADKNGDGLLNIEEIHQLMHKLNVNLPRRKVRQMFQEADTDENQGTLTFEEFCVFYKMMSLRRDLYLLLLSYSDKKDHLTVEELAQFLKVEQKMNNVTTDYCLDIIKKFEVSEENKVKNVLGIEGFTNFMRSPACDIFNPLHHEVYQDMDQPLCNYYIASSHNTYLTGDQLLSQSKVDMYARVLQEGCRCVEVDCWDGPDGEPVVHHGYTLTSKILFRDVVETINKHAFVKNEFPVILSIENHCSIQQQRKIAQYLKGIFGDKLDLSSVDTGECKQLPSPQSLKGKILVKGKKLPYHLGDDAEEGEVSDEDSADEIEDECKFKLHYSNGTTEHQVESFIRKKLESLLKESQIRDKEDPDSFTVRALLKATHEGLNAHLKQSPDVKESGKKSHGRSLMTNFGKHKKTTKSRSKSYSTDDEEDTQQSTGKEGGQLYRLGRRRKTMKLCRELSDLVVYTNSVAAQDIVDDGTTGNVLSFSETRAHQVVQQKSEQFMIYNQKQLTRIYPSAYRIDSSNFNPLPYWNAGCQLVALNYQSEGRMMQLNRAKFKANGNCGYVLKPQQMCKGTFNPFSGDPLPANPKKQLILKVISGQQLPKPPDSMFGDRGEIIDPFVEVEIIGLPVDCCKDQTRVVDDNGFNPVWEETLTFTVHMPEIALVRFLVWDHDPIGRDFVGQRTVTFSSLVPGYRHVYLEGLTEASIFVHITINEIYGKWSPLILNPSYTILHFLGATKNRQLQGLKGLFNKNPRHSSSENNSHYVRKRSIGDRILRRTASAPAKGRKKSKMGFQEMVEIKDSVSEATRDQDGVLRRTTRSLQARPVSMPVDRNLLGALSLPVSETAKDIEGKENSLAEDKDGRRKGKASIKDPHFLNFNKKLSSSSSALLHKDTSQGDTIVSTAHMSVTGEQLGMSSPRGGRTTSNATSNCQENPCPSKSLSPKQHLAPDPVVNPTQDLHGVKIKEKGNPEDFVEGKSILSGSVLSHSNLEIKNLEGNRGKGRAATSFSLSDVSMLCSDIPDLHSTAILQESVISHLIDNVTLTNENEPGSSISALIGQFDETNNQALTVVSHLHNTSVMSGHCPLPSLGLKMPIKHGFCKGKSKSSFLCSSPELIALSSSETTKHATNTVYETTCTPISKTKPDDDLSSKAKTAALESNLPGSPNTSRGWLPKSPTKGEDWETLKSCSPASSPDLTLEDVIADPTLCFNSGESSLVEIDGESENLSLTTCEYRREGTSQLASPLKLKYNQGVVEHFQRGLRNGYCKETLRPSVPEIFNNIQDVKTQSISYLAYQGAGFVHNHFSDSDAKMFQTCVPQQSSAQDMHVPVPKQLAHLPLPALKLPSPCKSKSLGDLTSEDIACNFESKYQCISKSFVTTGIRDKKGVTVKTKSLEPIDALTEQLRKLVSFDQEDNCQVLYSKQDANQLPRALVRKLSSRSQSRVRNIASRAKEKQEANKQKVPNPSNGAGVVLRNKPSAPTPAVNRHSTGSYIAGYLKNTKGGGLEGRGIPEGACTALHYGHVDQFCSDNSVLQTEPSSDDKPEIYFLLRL
PIGBOS1, A0A0B4J2F0, UniProt A0A0B4J2F0, whole entry, looked up: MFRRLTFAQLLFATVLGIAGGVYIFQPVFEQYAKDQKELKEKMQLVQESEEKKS
UniProt O15212, whole entry, looked up: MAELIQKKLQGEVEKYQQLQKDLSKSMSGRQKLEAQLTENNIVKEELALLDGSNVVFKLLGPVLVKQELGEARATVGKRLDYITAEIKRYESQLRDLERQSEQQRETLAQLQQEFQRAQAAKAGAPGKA
UniProt O60925, whole entry, looked up: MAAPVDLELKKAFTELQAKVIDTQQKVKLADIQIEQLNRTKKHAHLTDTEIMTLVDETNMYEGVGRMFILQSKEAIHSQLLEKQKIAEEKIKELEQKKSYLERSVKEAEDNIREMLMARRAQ

Key:
Assay in all cases: log2 fold change, soluble protein after heating vs DMSO (PISA); higher = thermal stabilisation; K562 cells, 10 uM, 30 min; active = over 0.2 and 3.5 SD of the protein, either way, in both replicates (recomputed)
[1] = compound: C1=CC=C(C=C1)[C@H](COC2=CC3=C(C=C2)NC(=O)N3)NC(=O)C4=CC=CN(C4=O)CC5=CC(=C(C=C5)F)F
Outline: (§1)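 K562 cells at 2×10^6 cells/mL were exposed to 10 μM compound for 30 min, then aliquots were heated for 3 min across 48°C-58°C, pooled, and extracted in PBS containing 0.5% NP-40 at 4°C. The supernatant after 21,000xg for 90 min was taken as soluble protein and measured by TMTpro 16plex LC-MS/MS with channel sums equalised. Thermal stability is reported relative to control samples, with values from duplicates. Fold changes are given on a log2 scale.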

[2] = compound: CC1=C(SC2=C1C(=N[C@H](C3=NN=C(N32)C)CC(=O)N)C4=CC=C(C=C4)Cl)C
Outline: as §1

[3] = compound: CC1=C2C(=CC=C1)N=C(N(C2=O)C3=CC=CC=C3C)CN4C=NC5=C(N=CN=C54)N
Outline: as §1

[4] = compound: Cc1sc2c(c1C)C(c1ccc(Cl)cc1)=N[C@@H](CC(=O)OC(C)(C)C)c1nnc(C)n1-2
Outline: as §1

[5] = compound: c1ccc([C@@H]2C[C@H]2NC2CCNCC2)cc1
Outline: as §1

| Target | log2 fold change [1] | log2 fold change [2] | log2 fold change [3] | log2 fold change [4] | log2 fold change [5] |
| --- | --- | --- | --- | --- | --- |
| PHKA2 (UniProt P46019) | inactive: -0.018 | inactive: -0.003 | inactive: 0.053 | inactive: 0.023 | inactive: 0.024 |
| PI4K2B (UniProt Q8TCG2) | inactive: 0.007 | inactive: 0.031 | inactive: 0.065 | inactive: 0.024 | inactive: -0.041 |
| PLAA (UniProt Q9Y263) | inactive: -0.025 | inactive: 0.021 | inactive: 0.063 | inactive: 0.002 | inactive: 0.008 |
| PGAM5 (UniProt Q96HS1) | inactive: -0.014 | inactive: 0 | inactive: -0.095 | inactive: 0.151 | inactive: 0.002 |
| PLCG1 isoform 2 (UniProt P19174) | inactive: -0.059 | inactive: 0.038 | inactive: 0.033 | inactive: 0.063 | inactive: -0.028 |
| PIGS (UniProt Q96S52) | inactive: 0.06 | inactive: 0.017 | inactive: 0.028 | inactive: 0.003 | inactive: -0.007 |
| PGK1 (UniProt P00558) | inactive: -0.012 | inactive: 0.06 | inactive: 0.034 | inactive: -0.017 | inactive: -0.047 |
| PIP (UniProt P12273) | inactive: -0.44 | inactive: 0.15 | inactive: -0.394 | inactive: -0.5 | inactive: -0.063 |
| PLD1 (UniProt Q13393) | inactive: 0.097 | inactive: -0.039 | inactive: 0.005 | inactive: 0.062 | inactive: -0.102 |
| PHF6 (UniProt Q8IWS0) | inactive: 0.094 | inactive: -0.173 | inactive: -0.094 | inactive: 0.058 | inactive: 0.05 |
| PGGHG (UniProt Q32M88) | inactive: -0.052 | inactive: -0.09 | inactive: -0.088 | inactive: -0.084 | inactive: 0.213 |
| PIN1 (UniProt Q13526) | inactive: 0.029 | inactive: 0.02 | inactive: 0.03 | inactive: -0.033 | inactive: -0.006 |
| PINX1 (UniProt Q96BK5) | inactive: 0.155 | inactive: -0.547 | inactive: -0.365 | inactive: 0.382 | inactive: 0.177 |
| PHAX (UniProt Q9H814) | inactive: 0.014 | inactive: -0.019 | inactive: -0.015 | inactive: -0.024 | inactive: 0.022 |
| PIGK (UniProt Q92643) | inactive: 0.032 | inactive: -0.006 | inactive: 0.047 | inactive: -0.037 | inactive: -0.04 |
| PIK3C3 (UniProt Q8NEB9) | inactive: -0.038 | inactive: 0.005 | inactive: 0.009 | inactive: 0.009 | inactive: -0.01 |
| PEX6 (UniProt Q13608) | inactive: -0.02 | inactive: 0.035 | inactive: 0.033 | inactive: -0.092 | inactive: 0.006 |
| PHACTR2 isoform 4 (UniProt O75167) | inactive: 0.076 | inactive: 0.002 | inactive: 0.05 | inactive: 0.018 | inactive: 0.01 |
| PHF5A (UniProt Q7RTV0) | inactive: 0.048 | inactive: -0.024 | inactive: 0.018 | inactive: 0.002 | inactive: 0.018 |
| PHOSPHO2 (UniProt Q8TCD6) | inactive: -0.076 | inactive: 0.093 | inactive: -0.03 | inactive: -0.111 | inactive: -0.296 |
| PI4KA (UniProt P42356) | inactive: -0.01 | inactive: -0.079 | inactive: 0.032 | inactive: 0.043 | inactive: -0.029 |
| PHB (UniProt P35232) | inactive: 0.013 | inactive: 0.055 | inactive: 0.03 | inactive: -0.038 | inactive: -0.02 |
| PIGH (UniProt Q14442) | inactive: 0.044 | inactive: 0.064 | inactive: 0.144 | inactive: -0.046 | inactive: -0.024 |
| PIP4K2C (UniProt Q8TBX8) | inactive: -0.148 | inactive: 0.034 | inactive: 0.05 | inactive: -0.029 | inactive: -0.042 |
| PIGO (UniProt Q8TEQ8) | inactive: -0.064 | inactive: -0.016 | inactive: 0.049 | inactive: -0.12 | inactive: -0.072 |
| PIK3CB (UniProt P42338) | inactive: -0.068 | inactive: 0.014 | active: 0.213 | inactive: -0.01 | inactive: 0.005 |
| PI4KB (UniProt Q9UBF8) | inactive: -0.009 | inactive: 0.06 | inactive: 0.066 | inactive: -0.007 | inactive: -0.023 |

2 consecutive records out of the list so far, for reference:

| Target | log2 fold change [1] | log2 fold change [2] | log2 fold change [3] | log2 fold change [4] | log2 fold change [5] |
| --- | --- | --- | --- | --- | --- |
| PHB (UniProt P35232) | inactive: 0.013 | inactive: 0.055 | inactive: 0.03 | inactive: -0.038 | inactive: -0.02 |
| PIGH (UniProt Q14442) | inactive: 0.044 | inactive: 0.064 | inactive: 0.144 | inactive: -0.046 | inactive: -0.024 |

The results go on.

| Target | log2 fold change [1] | log2 fold change [2] | log2 fold change [3] | log2 fold change [4] | log2 fold change [5] |
| --- | --- | --- | --- | --- | --- |
| PIP4P1 isoform 2 (UniProt Q86T03) | inactive: -0.016 | inactive: -0.106 | inactive: -0.118 | inactive: -0.002 | inactive: 0.05 |
| PIP4P2 (UniProt Q8N4L2) | inactive: 0.045 | inactive: 0.048 | inactive: -0.066 | inactive: -0.017 | inactive: -0.018 |
| PLCH1 (UniProt Q4KWH8) | inactive: -0.066 | inactive: 0.1 | inactive: 0.143 | inactive: 0.017 | inactive: -0.001 |
| PHGDH (UniProt O43175) | inactive: 0.004 | inactive: 0.007 | inactive: -0.012 | inactive: -0.001 | inactive: 0.012 |
| PFKP (UniProt Q01813) | inactive: 0.023 | inactive: 0.064 | inactive: 0.087 | inactive: -0.042 | inactive: -0.002 |
| PIGBOS1, A0A0B4J2F0 | inactive: -0.14 | inactive: 0.143 | inactive: -0.041 | inactive: -0.002 | inactive: -0.017 |
| PHACTR4 isoform 2 (UniProt Q8IZ21) | inactive: 0.022 | inactive: 0.074 | inactive: 0.082 | inactive: -0.022 | inactive: 0.057 |
| PEX19 (UniProt P40855) | inactive: 0.035 | inactive: -0.03 | inactive: -0.008 | inactive: -0.016 | inactive: 0.034 |
| PIP5K1A (UniProt Q99755) | inactive: 0.033 | inactive: -0.155 | inactive: -0.116 | inactive: 0.258 | inactive: -0.087 |
| PIEZO1 (UniProt Q92508) | inactive: 0.04 | inactive: 0.056 | inactive: -0.028 | inactive: -0.001 | inactive: 0.018 |
| PLBD1 (UniProt Q6P4A8) | inactive: 0.005 | inactive: -0.011 | inactive: -0.018 | inactive: -0.006 | inactive: 0.013 |
| PI4K2A (UniProt Q9BTU6) | inactive: 0.015 | inactive: 0.043 | inactive: 0.064 | inactive: -0.004 | inactive: 0.013 |
| PIP4K2B (UniProt P78356) | inactive: -0.102 | inactive: 0.018 | inactive: -0.034 | inactive: -0.038 | inactive: -0.026 |
| PFDN6 (UniProt O15212) | inactive: 0.013 | inactive: 0.046 | inactive: 0.004 | inactive: -0.074 | inactive: -0.025 |
| PGM2L1 (UniProt Q6PCE3) | inactive: -0.001 | inactive: 0.011 | inactive: 0.007 | inactive: 0.021 | inactive: 0.058 |
| PICALM (UniProt H0YEY8) | inactive: 0.091 | inactive: 0.09 | inactive: 0.15 | inactive: 0.041 | inactive: 0.055 |
| PHKG2 (UniProt P15735) | inactive: 0.028 | inactive: -0.033 | inactive: 0.013 | inactive: 0.051 | inactive: 0.026 |
| PIGA (UniProt P37287) | inactive: -0.004 | inactive: -0.006 | inactive: 0.018 | inactive: -0.012 | inactive: -0.023 |
| PHB2 (UniProt Q99623) | inactive: 0.024 | inactive: 0.008 | inactive: 0 | inactive: -0.001 | inactive: 0.016 |
| PFKM isoform 3 (UniProt P08237) | inactive: 0.024 | inactive: 0.034 | inactive: -0.003 | inactive: 0.013 | inactive: 0.044 |
| PKP3 isoform 2 (UniProt Q9Y446) | inactive: 0.012 | inactive: -0.136 | inactive: 0.046 | inactive: 0.052 | inactive: -0.112 |
| PHKB isoform 3 (UniProt Q93100) | inactive: -0.13 | inactive: -0.021 | inactive: 0.068 | inactive: 0.003 | inactive: 0.005 |
| PFDN1 (UniProt O60925) | inactive: -0.102 | inactive: 0.155 | inactive: 0.061 | inactive: -0.171 | inactive: -0.061 |
| PGLS (UniProt O95336) | inactive: -0.019 | inactive: 0.041 | inactive: -0.011 | inactive: -0.014 | inactive: -0.073 |
| PIK3R2 (UniProt O00459) | inactive: -0.133 | inactive: -0.023 | inactive: 0.068 | inactive: -0.094 | inactive: 0.028 |
| PLCD1 isoform 2 (UniProt P51178) | inactive: -0.021 | inactive: 0.094 | inactive: 0.004 | inactive: 0.056 | inactive: -0.06 |
